In all, about 320,000 compounds went through this assay and about 22,000 (6.9%) were called active. The shares of active, inactive and inconclusive entries below differ from those in the screen. The call rests on the fitted dose curve; in most records, active means well fitted inhibition curve with a large enough effect; inconclusive means small, poorly fitted or top-dose-only effect, or another doubt; inactive means no such curve, though single readings can be large or run the other way. A potency beside an inconclusive call is a rough fit, not a confirmed value.
Test: Primary qHTS for delayed death inhibitors of the malarial parasite plastid, 96 hour incubation
Settings: P. falciparum luciferase reporter growth; series mostly up to 28.7 µM
Summary of the method: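 Erythrocytes infected with luciferase-expressing P. falciparum were dispensed at 2% hematocrit and 0.05% parasitemia (final), then incubated with compounds 96 hours at 37 C in 5% CO2. Luminescence after detection reagent addition reported growth.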
Potency means the concentration at half of the fitted maximal effect.

| Compound | Potency |
| --- | --- |
| COc1ccc(CCNC(=O)CCn2c(=O)c3cccn3c3cccnc32)cc1OC | inconclusive: 18.5 µM [inhibitor, single point] |
| O=C(CSc1ccc2c(c1)OCCO2)NCCN1C(=O)CSC1=O | inconclusive: 11.7 µM [inhibitor, single point] |
| Cc1ccc(NC(=S)Nc2ccc(C(C)C)cc2)cc1S(=O)(=O)N1CCCCCC1 | inconclusive: 18.5 µM [inhibitor, single point] |
| CS(=O)(=O)Cc1ccc(C(=O)Nc2cccc(-c3nc4ccccc4[nH]3)c2)cc1 | active: 8.28 µM |
| COCCn1c(=N)c(C(=O)NCCc2ccc(OC)cc2)cc2c(=O)n3cccc(C)c3nc21 | active: 2.94 µM |
| NS(=O)(=O)c1cccc(NC(=O)Cn2cc(C(F)(F)F)cc(Cl)c2=O)c1 | inactive |
| CC(C)NS(=O)(=O)c1ccc(OCC(=O)NCc2ccco2)cc1 | inconclusive: 7.38 µM [inhibitor, partial curve, poor fit] |
| CN(C)c1cccc(N(C)C)c1CNC(=O)C(C)(C)C | inconclusive: 10.4 µM [inhibitor, single point] |
| Cc1ccc(Nc2nnc(SCc3nc4ccccc4c(=O)[nH]3)s2)cc1 | inconclusive: 4.15 µM [inhibitor, single point] |
| O=C(NCC(=O)N1CCN(Cc2ccccc2)CC1)c1ccc(Cl)cc1 | inactive |
| Cc1csc(SCC(=O)Nc2ccc(S(=O)(=O)N3CCCC3)cc2)n1 | inconclusive: 6.57 µM [inhibitor, partial curve, poor fit] |
| Cc1ccccc1N1CCN(c2ncnc3c2cnn3Cc2ccc(Cl)cc2)CC1 | inactive |
| O=C(COc1ccccc1)NCCn1ccc2ccccc21 | inactive |
| CCCCSc1nc2sc3c(c2c(=O)n1-c1ccc(C)cc1)CCN(C)C3 | inconclusive: 4.15 µM [inhibitor, single point] |
| COc1cccc(CC2(CO)CCN(Cc3cccn3-c3cccnc3)CC2)c1 | inconclusive: 18.5 µM [inhibitor, single point] |
| COc1ccccc1N1CCN(Cc2cc3c(cc2Br)OCCO3)CC1 | inactive |
| CCCCCC(=O)Nc1ccc(N2CCOCC2)c(S(=O)(=O)Nc2ccc(OC)cc2)c1 | inconclusive: 18.5 µM [inhibitor, single point] |
| O=C(CSc1nc(O)c(Cc2ccccc2)c(=O)n1-c1ccccc1)N1CCOCC1 | inactive |
| COCCn1c(=NC(=O)c2ccc3c(c2)OCO3)c(C#N)cc2c(=O)n3cccc(C)c3nc21 | inconclusive: 1.17 µM [inhibitor, partial curve, poor fit] |

A portion from further up:

| Compound | Potency |
| --- | --- |
| COCCn1c(=N)c(C(=O)NCCc2ccc(OC)cc2)cc2c(=O)n3cccc(C)c3nc21 | active: 2.94 µM |
| NS(=O)(=O)c1cccc(NC(=O)Cn2cc(C(F)(F)F)cc(Cl)c2=O)c1 | inactive |
